In paper PMC2832672:
Results are given in words; binding and its absence hold for the method and conditions named. In cells and extracts the contact can be indirect. Some results given as binding are weak or reduced against the parent protein; the word gives no strength. For some of these results: Where a sequence is shown, tags or fusion partners need not be part of it. One block for each binder: values may come before it.

How the values were obtained:
[1] = target: T1, Sans-fille (SNF), endogenous in embryo extracts (Drosophila (endogenous in embryos)) (UniProt P43332); experiment: co-IP; nuclear extracts of 3-18 hour embryos, NET buffer with 0.5% NP-40; immunoprecipitation with antibodies against PPS, U2A' or SNF, Western blot for SNF or U1-70K (Figure 4)
T1 sequence: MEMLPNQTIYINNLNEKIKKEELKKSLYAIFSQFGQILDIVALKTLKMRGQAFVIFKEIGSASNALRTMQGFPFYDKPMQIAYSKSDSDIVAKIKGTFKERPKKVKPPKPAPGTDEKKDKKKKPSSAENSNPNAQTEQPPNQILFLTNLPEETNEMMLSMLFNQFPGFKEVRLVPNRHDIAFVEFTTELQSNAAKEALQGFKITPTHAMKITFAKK

[2] = target: T2, GST::SXL fusion protein (Drosophila), P19339; experiment: pull-down; GST fusion proteins bound to glutathione sepharose beads, incubated with crude extracts of 3-8 hour embryos in NET buffer (150 mM NaCl, 50 mM Tris pH 7.5, 5 mM EDTA) with 0.5% NP-40; SNF detected by Western blot; only the target purified; details: remark: other sources report otherwise
T2 chain: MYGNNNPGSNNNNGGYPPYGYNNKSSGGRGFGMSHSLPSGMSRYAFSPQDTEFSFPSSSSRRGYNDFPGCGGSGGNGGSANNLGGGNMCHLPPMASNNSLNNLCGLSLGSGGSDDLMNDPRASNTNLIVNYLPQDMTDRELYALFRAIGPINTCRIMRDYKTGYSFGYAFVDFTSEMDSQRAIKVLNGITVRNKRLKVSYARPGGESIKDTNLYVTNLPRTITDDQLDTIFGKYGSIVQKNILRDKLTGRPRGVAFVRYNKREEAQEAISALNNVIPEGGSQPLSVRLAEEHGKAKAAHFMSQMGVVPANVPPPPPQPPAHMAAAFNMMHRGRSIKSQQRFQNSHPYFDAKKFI

[3] = target: T3, U2A', endogenous in embryo nuclear extracts (Drosophila (endogenous in embryos)) (UniProt Q9V4Q8); experiment: condition: only extract pretreated with RNase A and RNase T1; co-IP; as Figure 4B, but nuclear extract pretreated overnight at 4°C with RNase A and RNase T1; NET buffer with 0.5% NP-40
T3 sequence: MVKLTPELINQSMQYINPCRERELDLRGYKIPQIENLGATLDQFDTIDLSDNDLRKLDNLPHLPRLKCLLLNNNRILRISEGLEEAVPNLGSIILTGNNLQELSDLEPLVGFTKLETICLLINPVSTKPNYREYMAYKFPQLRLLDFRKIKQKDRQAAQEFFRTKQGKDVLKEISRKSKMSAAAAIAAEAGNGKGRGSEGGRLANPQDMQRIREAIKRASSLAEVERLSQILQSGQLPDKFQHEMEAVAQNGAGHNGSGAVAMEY

[4] = target: T3, U2A', endogenous in embryo nuclear extracts (Drosophila (endogenous in embryos)); experiment: co-IP; nuclear extracts of 3-18 hour embryos, NET buffer with 0.5% NP-40; immunoprecipitation with antibodies against PPS, U2A' or SNF, Western blot for SNF or U1-70K (Figure 4)

binding [1]: binds
B1: U1-70K, endogenous in embryo nuclear extracts (protein, UniProt P17133 1-448)
chain: MTQYLPPNLLALFAAREPIPFMPPVDKLPHEKKSRGYLGVAKFMADFEDPKDTPLPKTVETRQERLERRRREKAEQVAYKLEREIALWDPTEIKNATEDPFRTLFIARINYDTSESKLRREFEFYGPIKKIVLIHDQESGKPKGYAFIEYEHERDMHAAYKHADGKKIDSKRVLVDVERARTVKGWLPRRLGGGLGGTRRGGNDVNIKHSGREDNERERERYRLEREREDREGPGRGGGSNGLDARPGRGFGAERRRSRSRERRDRERDRGRGAVASNGRSRSRSRERRKRRAGSRERYDEFDRRDRRDRERERDRDREREKKKKRSKSRERESSRERRERKRERRDRERGTGSGGDVKERKPDFRDMDVIKIKEEPVDDGYPTFDYQNATIKREIDDEDEEKYRPPPAHHNMFSVPPPPILGRGNASTNPNPDNGQQSSGDPSWWRQ

binding [2]: binds
B2: Sans-fille (SNF), endogenous in embryo extracts, P43332 1-216 (protein)
chain: T1 sequence

binding [3]: no binding
binding [4]: binds
B3: Sans-fille (SNF), endogenous in embryo extracts (protein, UniProt P43332 1-216)
chain: T1 sequence
